Experimental data from publication PMC3914983.
No constants are given. Whether binding was seen depends on the method and setting. Binding seen in cells or lysates may run through a third protein. Binding can be weak; no strength is given. Sequences can lack the tags named with a protein.

Target: T1, NADPH oxidase 5 (HA-Nox5, Nox5β) (UniProt Q96PH1)
T1 sequence: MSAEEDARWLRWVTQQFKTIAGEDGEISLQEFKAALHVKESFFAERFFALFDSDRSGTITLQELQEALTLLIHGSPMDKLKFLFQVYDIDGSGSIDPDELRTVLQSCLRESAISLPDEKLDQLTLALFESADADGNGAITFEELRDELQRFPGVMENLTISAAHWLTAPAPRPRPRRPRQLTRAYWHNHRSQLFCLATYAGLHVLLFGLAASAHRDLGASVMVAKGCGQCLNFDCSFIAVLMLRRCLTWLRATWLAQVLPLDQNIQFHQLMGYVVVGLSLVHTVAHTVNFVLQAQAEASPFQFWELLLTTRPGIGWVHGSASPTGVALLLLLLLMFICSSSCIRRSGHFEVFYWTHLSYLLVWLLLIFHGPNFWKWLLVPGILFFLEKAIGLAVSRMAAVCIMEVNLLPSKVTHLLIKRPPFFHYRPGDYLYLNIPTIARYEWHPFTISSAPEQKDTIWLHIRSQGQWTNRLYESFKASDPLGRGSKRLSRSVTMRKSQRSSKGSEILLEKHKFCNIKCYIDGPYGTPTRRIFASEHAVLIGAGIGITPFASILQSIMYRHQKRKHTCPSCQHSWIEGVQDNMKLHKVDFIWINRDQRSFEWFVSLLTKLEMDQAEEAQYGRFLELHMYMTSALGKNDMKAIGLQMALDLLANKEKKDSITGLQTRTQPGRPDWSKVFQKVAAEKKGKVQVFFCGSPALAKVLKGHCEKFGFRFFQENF
Assay: co-IP; COS-7 cells expressing HA-Nox5 lysed in 20 mM Tris-HCl pH 7.4, 1% Triton X-100, 100 mM NaCl; soluble extracts incubated 2 h at 4°C with anti-HA or control mouse IgG, precipitated with protein A/G agarose; immune complexes blotted for HA-Nox5 and PKCα

## Protein kinase C alpha (PKCα) (enzyme)
  binding: binds
